PubChem BioAssay AID1259308 | NCATS | 2017

Test: 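Genes whose loss raises luciferase production in HEK293 cells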 (primary screen)
Cell system: human HEK293 embryonic kidney cells stably expressing firefly luciferase (HEK-CMV-Luc2-Hygro)
Reagents: single siRNA against human genes, 0.8 pmol siRNA per well
Timing: 72 h
Measured: 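Luciferase light (ONE-Glo) measured on one replicate plate set and viability (CellTiter-Glo) on the other, scaled to a negative control siRNA, with robust z-scores and luciferase per cell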
Direction: total luciferase, z-score: higher = more reporter protein produced
Rule for the call: 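An siRNA counts as active if its total luciferase robust z-score exceeds 3; genes with two or more such siRNAs out of three were retested with fresh siRNAs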
Calls: active = raised luciferase; inactive = no rise
This is a random part of about 59,000 reagents. Of all reagents, about 1,510 (2.6%) are marked active. 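Calls use total luciferase alone and ignore viability, so some active siRNAs may act by altering cell number.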 Reagents against one gene are numbered here. Further read-outs or replicates are left out here.

Silencing of VIP (vasoactive intestinal peptide) #1 gave: total luciferase, z-score -0.783; inactive.
VIP (vasoactive intestinal peptide) #2 gave total luciferase, z-score 2.22; inactive.
For VIP (vasoactive intestinal peptide) #3, the values are total luciferase, z-score -0.0217; inactive.
Depletion of OR6Q1 (olfactory receptor family 6 subfamily Q member 1) #1 resulted in: total luciferase, z-score -1.08; inactive.
OR6Q1 (olfactory receptor family 6 subfamily Q member 1) #2 showed total luciferase, z-score -1.11; inactive.
With knock-down of OR6Q1 (olfactory receptor family 6 subfamily Q member 1) #3, the record shows total luciferase, z-score -0.26; inactive.
For TTC7A (tetratricopeptide repeat domain 7A) #1, the entry reads total luciferase, z-score 2.45; inactive.
Against TTC7A (tetratricopeptide repeat domain 7A) #2 the deposit lists total luciferase, z-score 4.17; active.
Knock-down of TTC7A (tetratricopeptide repeat domain 7A) #3 resulted in: total luciferase, z-score -0.371; inactive.
Against ZNF302 (zinc finger protein 302) #1, the values are total luciferase, z-score 0.0172; inactive.
Depletion of ZNF302 (zinc finger protein 302) #2 gave: total luciferase, z-score -0.551; inactive.
Depletion of ZNF302 (zinc finger protein 302) #3 resulted in: total luciferase, z-score 0.976; inactive.
Silencing of OR51B4 (olfactory receptor family 51 subfamily B member 4) #1 came out at: total luciferase, z-score -1.88; inactive.
With knock-down of OR51B4 (olfactory receptor family 51 subfamily B member 4) #2, the screen gave total luciferase, z-score -0.237; inactive.
OR51B4 (olfactory receptor family 51 subfamily B member 4) #3 scored total luciferase, z-score 1.56; inactive.
After knock-down of MPPED2 (metallophosphoesterase domain containing 2) #1 the results were total luciferase, z-score 0.281; inactive.
MPPED2 (metallophosphoesterase domain containing 2) #2 gave total luciferase, z-score -2.72; inactive.
Depletion of MPPED2 (metallophosphoesterase domain containing 2) #3 came out at: total luciferase, z-score -1.33; inactive.
Depletion of EHBP1 (EH domain binding protein 1) #1 resulted in: total luciferase, z-score -0.198; inactive.
EHBP1 (EH domain binding protein 1) #2 scored total luciferase, z-score 0.568; inactive.
For EHBP1 (EH domain binding protein 1) #3, the values are total luciferase, z-score -2.1; inactive.
LRRC18 (leucine rich repeat containing 18) #1 scored total luciferase, z-score -0.216; inactive.
Depletion of LRRC18 (leucine rich repeat containing 18) #2 resulted in: total luciferase, z-score 1.46; inactive.
For LRRC18 (leucine rich repeat containing 18) #3 the deposit lists total luciferase, z-score -0.179; inactive.
With knock-down of SIRPB2 (signal regulatory protein beta 2) #1, the screen gave total luciferase, z-score -0.519; inactive.
Depletion of SIRPB2 (signal regulatory protein beta 2) #2 gave: total luciferase, z-score 1.79; inactive.
After knock-down of SIRPB2 (signal regulatory protein beta 2) #3 the results were total luciferase, z-score 0.394; inactive.
ZNF397 (zinc finger protein 397) #1 showed total luciferase, z-score 0.158; inactive.
With knock-down of ZNF397 (zinc finger protein 397) #2, the record shows total luciferase, z-score -1.63; inactive.
Depletion of ZNF397 (zinc finger protein 397) #3 gave: total luciferase, z-score 0.107; inactive.
Silencing of PPY (pancreatic polypeptide) #1 resulted in: total luciferase, z-score 0.961; inactive.
PPY (pancreatic polypeptide) #2 showed total luciferase, z-score -0.511; inactive.
Against PPY (pancreatic polypeptide) #3 the deposit lists total luciferase, z-score -1.31; inactive.
